{"sequences": {"note": "The chains behind the UniProt entries cited, without tags or fusion partners.", "UniProt O88522": "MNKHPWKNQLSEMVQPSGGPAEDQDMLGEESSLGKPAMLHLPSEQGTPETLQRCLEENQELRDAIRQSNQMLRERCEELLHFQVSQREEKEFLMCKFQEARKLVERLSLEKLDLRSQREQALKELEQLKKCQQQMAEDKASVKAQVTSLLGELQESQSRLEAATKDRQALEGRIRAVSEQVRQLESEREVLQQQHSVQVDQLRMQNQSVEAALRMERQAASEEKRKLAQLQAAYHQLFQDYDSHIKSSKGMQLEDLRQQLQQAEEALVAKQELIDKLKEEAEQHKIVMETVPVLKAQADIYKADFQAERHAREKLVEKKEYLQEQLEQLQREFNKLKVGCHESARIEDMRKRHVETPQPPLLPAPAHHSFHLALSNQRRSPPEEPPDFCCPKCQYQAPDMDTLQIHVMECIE"}, "source": "paper PMC7519157", "binders": {"B1": {"name": "Myc-labeled SOCS7 (suppressor of cytokine signaling 7) (protein, UniProt Q8VHQ2 1-579)", "chain": "MVFRNVGRPPEEEDAEAAREPGPSELLCPRHRCALDPKALPPGLALERTWGPVAGLEAQLAALGLGQPAGPGIKTAGGGCCPCPCPPQPPPPQPPPPAAAPQAGEDPTETSDALLVLEGLESEAESLETNSCSEEELSSPGRGGGGVGGRLLLQPPGPELPPVPFPLQDLVPPGRLSRGEQQQQQPPPPPPPPGPLRPLAGPSRKGSFKIRLSRLFRTKSCNGGSGGGDGTGKRPSGDLAASAASLTDMGGSAVRELDTGRKPRLTRTQSAFSPVSFSPLFTGETVSLVDVDISQRGLTSPHPPTPPPPPRRSLSLLDDISGTLPTSVLVAPMGSSLQSFPLPPPPPPHAPDAFPRIAPIRASESLHSQPPQHLQCPLYRPDSSSFAASLRELEKCGWYWGPMNWEDAEMKLKGKPDGSFLVRDSSDPRYILSLSFRSQGITHHTRMEHYRGTFSLWCHPKFEDRCQSVVEFIKRAIMHSKNGKFLYFLRSRVPGLPPTPVQLLYPVSRFSNVKSLQHLCRFRIRQLVRIDHIPDLPLPKPLISYIRKFYYYDPQEEVYLSLKEAQLISKQKQEVEPST"}, "B2": {"name": "SOCS7 of the GST pulldown assay (protein, UniProt Q8VHQ2 1-579)", "chain": "B1 chain"}, "B3": {"name": "SOCS7 in Hep G2 cells (protein, UniProt O14512 1-581)", "chain": "MVFRNVGRPPEEEDVEAAPEPGPSELLCPRHRCALDPKALPPGLALERTWGPAAGLEAQLAALGLGQPAGPGVKTVGGGCCPCPCPPQPPPPQPQPPAAAPQAGEDPTETSDALLVLEGLESEAESLETNSCSEEELSSPGRGGGGGGRLLLQPPGPELPPVPFPLQDLVPLGRLSRGEQQQQQQQQPPPPPPPPGPLRPLAGPSRKGSFKIRLSRLFRTKSCNGGSGGGDGTGKRPSGELAASAASLTDMGGSAGRELDAGRKPKLTRTQSAFSPVSFSPLFTGETVSLVDVDISQRGLTSPHPPTPPPPPRRSLSLLDDISGTLPTSVLVAPMGSSLQSFPLPPPPPPHAPDAFPRIAPIRAAESLHSQPPQHLQCPLYRPDSSSFAASLRELEKCGWYWGPMNWEDAEMKLKGKPDGSFLVRDSSDPRYILSLSFRSQGITHHTRMEHYRGTFSLWCHPKFEDRCQSVVEFIKRAIMHSKNGKFLYFLRSRVPGLPPTPVQLLYPVSRFSNVKSLQHLCRFRIRQLVRIDHIPDLPLPKPLISYIRKFYYYDPQEEVYLSLKEAQLISKQKQEVEPST"}, "B4": {"name": "IKKα (protein, UniProt Q60680 1-745)", "chain": "MERPPGLRPGAGGPWEMRERLGTGGFGNVSLYQHRELDLKIAIKSCRLELSSKNRERWCHEIQIMKKLDHANVVKACDVPEELNFLINDVPLLAMEYCSGGDLRKLLNKPENCCGLKESQILSLLSDIGSGIRYLHENKIIHRDLKPENIVLQDVGGKTIHKIIDLGYAKDVDQGSLCTSFVGTLQYLAPELFENKPYTATVDYWSFGTMVFECIAGYRPFLHHLQPFTWHEKIKKKDPKCIFACEEMTGEVRFSSHLPQPNSLCSLIVEPMESWLQLMLNWDPQQRGGPIDLTLKQPRCFALMDHILNLKIVHILNMTSAKIISFLLPCDESLHSLQSRIERETGINTGSQELLSETGISLDPRKPASQCVLDGVRGCDSYMVYLFDKSKTVYEGPFASRSLSDCVNYIVQDSKIQLPIIQLRKVWAEAVHYVSGLKEDYSRLFQGQRAAMLSLLRYNANLTKMKNTLISASQQLKAKLEFFRKSIQLDLERYSEQMTYGISSEKMLKAWKEMEEKAIHYSEVGVIGYLEDQIMSLHTEIMELQKSPYGRRQGDLMESLEQRAIDLYKQLKHRPPDHLYSDSTEMVKIIVHTVQSQDRVLKELFGHLSKLLGCKQKIIDLLPKVEVALSNIKEADNTVMFMQGKRQKEIWHLLKIACTQSSARSLVGSSLEGTVTPPVSAWLPPTLADREHPLTCVVTPQDGETLAQMIEENLNCLGHLSTIIREANEDQSSSLMSLDWSWLAE"}, "B5": {"name": "IKKβ (protein, UniProt O88351 1-757)", "chain": "MSWSPSLPTQTCGAWEMKERLGTGGFGNVIRWHNQATGEQIAIKQCRQELSPKNRNRWCLEIQIMRRLNHPNVVAARDVPEGMQNLAPNDLPLLAMEYCQGGDLRRYLNQFENCCGLREGAVLTLLSDIASALRYLHENRIIHRDLKPENIVLQQGEKRLIHKIIDLGYAKELDQGSLCTSFVGTLQYLAPELLEQQKYTVTVDYWSFGTLAFECITGFRPFLPNWQPVQWHSKVRQKSEVDIVVSEDLNGAVKFSSSLPFPNNLNSVLAERLEKWLQLMLMWHPRQRGTDPQYGPNGCFRALDDILNLKLVHVLNMVTGTVHTYPVTEDESLQSLKTRIQENTGILETDQELLQKAGLVLLPDKPATQCISDSKTNEGLTLDMDLVFLLDNSKINYETQITPRPPPESVSCILQEPKRNLSFFQLRKVWGQVWHSIQTLKEDCNRLQQGQRAAMMSLLRNNSCLSKMKNAMASTAQQLKAKLDFFKTSIQIDLEKYKEQTEFGITSDKLLLAWREMEQAVEQCGRENDVKHLVERMMALQTDIVDLQRSPMGRKQGGTLDDLEEQARELYRKLREKPRDQRTEGDSQEMVRLLLQAIQSFEKKVRVIYTQLSKTVVCKQKALELLPKVEEVVSLMNEDERTVVRLQEKRQKELWNLLKIACSKVRGPVSGSPDSMNVSRLSHPGQLMSQPSSACDSLPESDKKSEELVAEAHALCSRLESALQDTVKEQDRSFTTLDWSWLQMEDEERCSLEQACD"}, "B6": {"name": "SOCS7 in bone marrow-derived macrophages (protein, UniProt Q8VHQ2 1-579)", "chain": "B1 chain"}}, "key": {"[1]": {"target": "T1, HA-labeled PTPN14 (protein tyrosine phosphatase non-receptor type 14) (mouse) (UniProt Q62130)", "T1 sequence": "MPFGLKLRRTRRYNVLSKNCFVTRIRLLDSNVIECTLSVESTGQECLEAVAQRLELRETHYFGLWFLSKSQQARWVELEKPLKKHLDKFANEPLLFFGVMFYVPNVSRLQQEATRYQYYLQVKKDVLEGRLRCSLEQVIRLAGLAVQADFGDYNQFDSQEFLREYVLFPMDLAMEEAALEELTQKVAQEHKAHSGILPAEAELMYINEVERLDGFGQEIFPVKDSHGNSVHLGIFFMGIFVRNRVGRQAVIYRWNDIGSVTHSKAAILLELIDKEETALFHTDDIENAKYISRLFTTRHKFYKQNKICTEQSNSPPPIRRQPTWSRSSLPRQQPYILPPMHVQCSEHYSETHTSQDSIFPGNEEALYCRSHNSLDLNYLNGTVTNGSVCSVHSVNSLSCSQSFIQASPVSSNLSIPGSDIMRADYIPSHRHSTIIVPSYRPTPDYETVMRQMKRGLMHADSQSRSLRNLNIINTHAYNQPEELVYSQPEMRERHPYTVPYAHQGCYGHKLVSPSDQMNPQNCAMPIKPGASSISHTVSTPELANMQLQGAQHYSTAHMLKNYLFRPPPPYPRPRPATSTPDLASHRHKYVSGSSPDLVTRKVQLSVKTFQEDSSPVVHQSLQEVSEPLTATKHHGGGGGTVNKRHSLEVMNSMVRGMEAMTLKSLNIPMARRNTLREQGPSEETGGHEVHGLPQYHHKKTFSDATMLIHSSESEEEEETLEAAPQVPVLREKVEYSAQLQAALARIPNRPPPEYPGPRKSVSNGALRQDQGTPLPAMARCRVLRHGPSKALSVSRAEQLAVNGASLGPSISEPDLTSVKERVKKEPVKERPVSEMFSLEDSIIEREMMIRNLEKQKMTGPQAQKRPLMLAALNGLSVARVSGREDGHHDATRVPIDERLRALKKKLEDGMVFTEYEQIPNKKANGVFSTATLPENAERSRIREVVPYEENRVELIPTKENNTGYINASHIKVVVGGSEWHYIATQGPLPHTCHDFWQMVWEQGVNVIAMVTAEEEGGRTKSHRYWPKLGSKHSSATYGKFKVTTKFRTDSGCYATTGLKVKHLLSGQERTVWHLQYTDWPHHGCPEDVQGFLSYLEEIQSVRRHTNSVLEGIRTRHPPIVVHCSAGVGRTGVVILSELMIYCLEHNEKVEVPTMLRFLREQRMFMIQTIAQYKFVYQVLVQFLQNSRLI", "assay": "co-IP; HA-labeled PTPN14 and Myc-labeled SOCS7 transfected into HEK293T cells; RIPA lysates incubated with antibodies and Protein A/G beads overnight at 4 °C, immunoblot"}, "GST-PTPN14 (mouse)": {"target": "T2, GST-PTPN14 (mouse) (UniProt Q62130)", "T2 sequence": "T1 sequence", "assay": "pull-down; GST pulldown assay in vitro"}, "[2]": {"target": "T3, PTPN14 in Hep G2 cells (human (endogenous in Hep G2)) (UniProt Q15678)", "T3 sequence": "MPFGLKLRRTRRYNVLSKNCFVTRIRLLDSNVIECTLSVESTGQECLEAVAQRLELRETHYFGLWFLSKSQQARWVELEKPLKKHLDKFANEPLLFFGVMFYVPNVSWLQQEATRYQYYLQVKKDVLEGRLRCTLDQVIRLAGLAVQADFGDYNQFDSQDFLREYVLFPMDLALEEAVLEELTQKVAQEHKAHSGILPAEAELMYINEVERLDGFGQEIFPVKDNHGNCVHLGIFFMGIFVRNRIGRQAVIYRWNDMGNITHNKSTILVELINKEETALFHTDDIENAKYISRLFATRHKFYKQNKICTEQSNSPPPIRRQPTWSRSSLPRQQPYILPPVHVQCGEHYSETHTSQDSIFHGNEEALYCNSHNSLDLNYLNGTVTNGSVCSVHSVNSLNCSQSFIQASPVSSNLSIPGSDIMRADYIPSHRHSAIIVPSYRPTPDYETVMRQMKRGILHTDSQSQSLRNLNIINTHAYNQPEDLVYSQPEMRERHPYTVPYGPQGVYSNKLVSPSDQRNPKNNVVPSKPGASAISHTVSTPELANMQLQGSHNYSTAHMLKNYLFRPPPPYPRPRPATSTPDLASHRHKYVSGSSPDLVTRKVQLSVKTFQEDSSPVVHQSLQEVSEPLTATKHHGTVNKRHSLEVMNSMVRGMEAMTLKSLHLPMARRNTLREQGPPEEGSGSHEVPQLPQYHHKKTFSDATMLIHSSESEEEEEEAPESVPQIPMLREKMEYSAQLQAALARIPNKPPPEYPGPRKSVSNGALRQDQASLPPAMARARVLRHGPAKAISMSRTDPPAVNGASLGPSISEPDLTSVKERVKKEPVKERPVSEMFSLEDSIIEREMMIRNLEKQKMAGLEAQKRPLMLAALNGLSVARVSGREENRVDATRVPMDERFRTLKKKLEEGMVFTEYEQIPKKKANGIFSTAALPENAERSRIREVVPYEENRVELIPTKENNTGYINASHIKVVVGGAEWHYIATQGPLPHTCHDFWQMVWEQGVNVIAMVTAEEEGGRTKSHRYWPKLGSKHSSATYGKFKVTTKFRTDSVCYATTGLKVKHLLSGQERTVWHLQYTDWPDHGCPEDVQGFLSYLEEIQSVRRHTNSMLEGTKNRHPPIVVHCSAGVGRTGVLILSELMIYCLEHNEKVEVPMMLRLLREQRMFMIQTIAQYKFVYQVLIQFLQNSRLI", "assay": "co-IP; Hep G2 cells treated with E64d+PepA or MG132, stimulated with 1 μg/mL LPS and 5 mM D-GalN for 24 h; lysates with antibodies and Protein A/G beads overnight at 4 °C"}, "[3]": {"target": "IKKγ (mouse (endogenous in BMDMs)) (UniProt O88522)", "assay": "co-IP; wild-type or PTPN14-deficient BMDMs, with or without Socs7 siRNA, stimulated with 1 μg/mL LPS and 5 mM D-GalN for 24 h; lysates with antibodies and Protein A/G beads overnight at 4 °C"}}, "note": "No constants are given. Whether binding was seen depends on the method and setting. Binding seen in cells or lysates may run through a third protein. Some results given as binding are weak or reduced against the parent protein; the word gives no strength. For part of these data: Tags and fused reporters may be left off the sequences shown.", "data": [{"binder": "B1", "values": [{"measurement": "binding", "setting": "[1]", "value": "binds"}]}, {"binder": "B2", "values": [{"measurement": "binding", "setting": "GST-PTPN14 (mouse)", "value": "binds"}]}, {"binder": "B3", "values": [{"measurement": "binding", "setting": "[2]", "value": "binds"}]}, {"binder": "B4", "values": [{"measurement": "binding", "setting": "[3]", "value": "binds"}]}, {"binder": "B5", "values": [{"measurement": "binding", "setting": "[3]", "value": "binds"}]}, {"binder": "B6", "values": [{"measurement": "binding", "setting": "[3]", "value": "binds"}]}]}
